Experimental data taken from the supplement of paper PMC12819154, “High-throughput peptide-centric local stability assay extends protein–ligand identification to membrane proteins, tissues and bacteria” (Nature Structural & Molecular Biology, 2025).
Some of the results follow. Most values lie at the level of the controls, where differences are scatter.

The chains behind the UniProt entries cited, without tags or fusion partners. Where a name states a change or a piece, a line headed by the entry shows the natural chain unless it says otherwise.
UniProt P55084: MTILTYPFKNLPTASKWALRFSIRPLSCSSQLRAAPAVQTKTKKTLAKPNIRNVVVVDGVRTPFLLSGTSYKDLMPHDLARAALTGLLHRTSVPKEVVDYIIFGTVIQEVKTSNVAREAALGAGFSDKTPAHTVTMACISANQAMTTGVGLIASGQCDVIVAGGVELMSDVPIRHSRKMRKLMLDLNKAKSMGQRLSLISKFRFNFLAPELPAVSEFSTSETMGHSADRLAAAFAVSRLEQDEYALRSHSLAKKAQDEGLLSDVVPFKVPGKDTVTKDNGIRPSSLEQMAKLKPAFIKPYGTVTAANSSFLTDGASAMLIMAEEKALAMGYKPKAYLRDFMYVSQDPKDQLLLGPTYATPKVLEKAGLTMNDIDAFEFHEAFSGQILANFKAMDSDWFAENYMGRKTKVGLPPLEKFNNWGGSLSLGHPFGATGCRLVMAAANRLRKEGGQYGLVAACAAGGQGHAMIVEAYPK
UniProt P57740: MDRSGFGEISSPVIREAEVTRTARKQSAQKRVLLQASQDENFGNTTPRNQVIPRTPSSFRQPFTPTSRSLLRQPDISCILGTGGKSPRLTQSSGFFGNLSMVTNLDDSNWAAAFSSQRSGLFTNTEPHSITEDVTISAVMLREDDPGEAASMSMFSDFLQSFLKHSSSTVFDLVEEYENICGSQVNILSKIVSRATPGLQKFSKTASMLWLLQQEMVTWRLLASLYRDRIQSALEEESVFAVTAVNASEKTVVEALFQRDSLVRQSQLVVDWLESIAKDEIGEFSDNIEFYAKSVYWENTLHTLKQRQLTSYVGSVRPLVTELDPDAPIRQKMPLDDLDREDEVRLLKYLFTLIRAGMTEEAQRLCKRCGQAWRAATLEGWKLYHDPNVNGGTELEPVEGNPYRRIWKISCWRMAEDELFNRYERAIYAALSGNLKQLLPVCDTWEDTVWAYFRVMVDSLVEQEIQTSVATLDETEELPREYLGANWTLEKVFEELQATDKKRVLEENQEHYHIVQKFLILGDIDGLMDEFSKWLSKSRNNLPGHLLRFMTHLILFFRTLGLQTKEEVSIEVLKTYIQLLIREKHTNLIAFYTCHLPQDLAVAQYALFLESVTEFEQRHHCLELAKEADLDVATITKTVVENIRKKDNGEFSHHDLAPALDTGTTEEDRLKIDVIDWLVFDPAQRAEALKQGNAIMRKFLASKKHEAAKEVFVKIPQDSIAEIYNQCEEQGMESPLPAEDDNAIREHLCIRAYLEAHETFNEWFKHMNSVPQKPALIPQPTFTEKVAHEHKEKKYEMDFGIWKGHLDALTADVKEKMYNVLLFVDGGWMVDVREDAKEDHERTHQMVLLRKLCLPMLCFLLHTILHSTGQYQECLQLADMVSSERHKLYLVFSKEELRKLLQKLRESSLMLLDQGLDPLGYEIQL
UniProt P62312: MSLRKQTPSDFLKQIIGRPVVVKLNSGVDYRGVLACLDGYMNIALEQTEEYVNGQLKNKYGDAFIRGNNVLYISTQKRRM
UniProt P78364: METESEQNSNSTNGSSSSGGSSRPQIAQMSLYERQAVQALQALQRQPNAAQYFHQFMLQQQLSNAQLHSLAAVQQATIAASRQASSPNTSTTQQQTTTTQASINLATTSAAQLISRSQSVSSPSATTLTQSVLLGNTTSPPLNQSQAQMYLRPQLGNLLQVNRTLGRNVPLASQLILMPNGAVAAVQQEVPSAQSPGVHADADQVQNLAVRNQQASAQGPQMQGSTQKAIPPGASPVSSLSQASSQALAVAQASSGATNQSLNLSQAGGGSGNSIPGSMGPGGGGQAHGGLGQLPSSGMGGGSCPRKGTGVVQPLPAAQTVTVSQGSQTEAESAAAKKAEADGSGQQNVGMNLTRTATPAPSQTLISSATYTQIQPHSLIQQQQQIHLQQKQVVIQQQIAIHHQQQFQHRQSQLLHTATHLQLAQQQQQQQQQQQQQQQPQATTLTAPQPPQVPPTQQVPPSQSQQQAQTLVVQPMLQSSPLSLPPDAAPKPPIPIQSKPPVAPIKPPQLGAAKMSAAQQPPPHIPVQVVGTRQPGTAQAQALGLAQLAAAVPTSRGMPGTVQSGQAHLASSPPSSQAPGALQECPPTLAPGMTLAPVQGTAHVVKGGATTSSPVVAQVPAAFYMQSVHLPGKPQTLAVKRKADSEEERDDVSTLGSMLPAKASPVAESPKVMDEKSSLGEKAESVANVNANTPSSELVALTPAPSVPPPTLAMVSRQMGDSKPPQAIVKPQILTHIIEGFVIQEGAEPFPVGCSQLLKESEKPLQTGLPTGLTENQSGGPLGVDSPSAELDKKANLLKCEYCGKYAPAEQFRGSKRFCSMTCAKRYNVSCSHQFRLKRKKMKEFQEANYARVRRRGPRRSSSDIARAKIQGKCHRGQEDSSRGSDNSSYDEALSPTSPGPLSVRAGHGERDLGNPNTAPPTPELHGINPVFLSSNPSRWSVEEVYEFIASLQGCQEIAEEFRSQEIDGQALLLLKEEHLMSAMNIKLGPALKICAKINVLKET
UniProt P61086: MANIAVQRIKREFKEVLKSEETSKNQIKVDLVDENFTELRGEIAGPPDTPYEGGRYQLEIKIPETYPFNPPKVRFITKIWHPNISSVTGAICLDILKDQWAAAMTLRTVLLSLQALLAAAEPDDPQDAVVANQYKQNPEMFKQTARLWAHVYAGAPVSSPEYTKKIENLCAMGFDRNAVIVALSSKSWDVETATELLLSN
UniProt P69892: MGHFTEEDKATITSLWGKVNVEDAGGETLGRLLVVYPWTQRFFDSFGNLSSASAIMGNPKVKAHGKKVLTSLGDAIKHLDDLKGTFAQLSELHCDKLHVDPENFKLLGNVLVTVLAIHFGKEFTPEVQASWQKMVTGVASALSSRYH
UniProt P68371, whole entry: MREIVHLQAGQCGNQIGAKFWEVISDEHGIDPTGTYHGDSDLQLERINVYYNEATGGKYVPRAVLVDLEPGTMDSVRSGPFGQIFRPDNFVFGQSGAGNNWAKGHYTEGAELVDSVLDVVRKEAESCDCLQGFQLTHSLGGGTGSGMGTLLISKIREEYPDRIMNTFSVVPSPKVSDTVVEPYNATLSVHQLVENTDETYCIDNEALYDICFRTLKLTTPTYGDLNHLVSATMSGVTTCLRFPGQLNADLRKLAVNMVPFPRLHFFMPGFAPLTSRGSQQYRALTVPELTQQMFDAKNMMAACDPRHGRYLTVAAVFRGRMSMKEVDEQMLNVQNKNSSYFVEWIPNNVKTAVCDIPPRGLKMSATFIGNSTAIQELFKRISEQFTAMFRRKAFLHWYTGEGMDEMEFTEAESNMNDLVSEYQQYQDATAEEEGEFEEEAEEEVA

compound: Cc1nc(Nc2ncc(C(=O)Nc3c(C)cccc3Cl)s2)cc(N2CCN(CCO)CC2)n1 [dasatinib]; assay: log2 fold change of tryptic peptide abundance, ligand vs vehicle (limited proteolysis) (log2 ratio); higher = more trypsin-susceptible (destabilized); details: ligand concentration: 5 uM; sample: K562 cleared lysate

Target | log2 fold change
UniProt P62269 (peptide sequence: DVKDGKYSQVLANGLDNK, peptide start residue: 89) | 0.574
HADHB (peptide sequence: TKVGLPPLEK, peptide start residue: 407) (UniProt P55084) | -0.393
NUP107 (peptide sequence: HMNSVPQKPALIPQPTFTEK, peptide start residue: 766) (UniProt P57740) | -0.453
UniProt P62312 (peptide sequence: LNSGVDYR, peptide start residue: 24) | -0.172
PHC1 (peptide sequence: MKEFQEANYAR, peptide start residue: 842) (UniProt P78364) | 0.48
UniProt P61086 (peptide sequence: DQWAAAMTLR, peptide start residue: 98) | -0.472
HBG2 (peptide sequence: MVTGVASALSSR, peptide start residue: 134) (UniProt P69892) | 0.0677
UniProt P68371 (peptide sequence: INVYYNEATGGK, peptide start residue: 47) | 0.0375
